Measurements published in US20170073690A1, “ANTAGONISTS OF SLC38A9 AND THEIR USE IN THERAPY” (CEMM - Forschungzentrum Fuer Molekulare Medizin GMBH, priority 2014, published 2017).
These are yes or no findings as the source states them, for the method shown. Binding seen in cells or lysates may run through a third protein. Some binding calls cover weakened binding; strength is not graded here.

Amino acid sequences for entries named in this document (tags omitted).
UniProt Q80X95: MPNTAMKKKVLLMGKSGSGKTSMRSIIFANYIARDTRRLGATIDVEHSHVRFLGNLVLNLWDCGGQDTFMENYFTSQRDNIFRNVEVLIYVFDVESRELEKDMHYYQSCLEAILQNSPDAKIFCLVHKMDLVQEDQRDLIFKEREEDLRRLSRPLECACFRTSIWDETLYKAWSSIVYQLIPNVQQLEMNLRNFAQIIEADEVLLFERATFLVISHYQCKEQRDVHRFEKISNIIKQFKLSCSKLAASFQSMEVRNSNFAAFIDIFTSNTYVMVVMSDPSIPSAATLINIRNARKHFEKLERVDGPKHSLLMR

Biological target: RAGA, murine, endogenous (NIH3T3 and Raw264.7 cells) (mouse) (UniProt Q80X95)
Assay: endogenous co-IP, murine NIH3T3 and Raw264.7 lysates, immunoblot

B1: SLC38A9, murine, endogenous (NIH3T3 and Raw264.7 cells) (protein, mouse, UniProt Q8BGD6 1-560, looked up)
chain: MASVDGDSRHLLSEVEHEVSPGPMNIQFDSSDLRSKRPFYIEPTNIVNVNDVIQRVSDHAAAMNKRIHYYSRLTTPADKALIAPDHVVPAPEECYVYSPLGSAYKLKSYTEGYGKNTSLVTIFMIWNTMMGTSILSIPWGIKQAGFTTGMCVIVLMGLLTLYCCYRVVKSRSTISTSDTSTWEYPDVCKHYFGSFGQWSSLLFSLVSLIGAMIVYWVLMSNFLFNTGKFIFNFIHHINDTDTVLSTNNSNPVICPNAGSGGRPDNSSMIFYNNNTEVQLFEKWWDKSRTVPFYLIGLLLPLLNFKSPSFFSKFNILGTVSVLYLIFVVTLKAVRLGFHLEFHWFVPTEFFVPEIRAQFPQLMGVLTLAFFIHNCIITLLKNNKNQENNVRDLCIAYMLVTLTYLYIGILVFASFPSPPLPKDCIEQNFLDNFPSSDILSFIARIFLLFQMMTVYPLLGYLARVQLLGHIFGDIYPSIFHVLILNLVIVGAGVTMACFYPNIGGIIRYSGAACGLAFVFIYPSLIYIISLHQEERLTWPKLVFHVIIIILGLANLIAQFFM
- binding: binds
